Results are given in words; binding and its absence hold for the method and conditions named. Some binding calls cover weakened binding; strength is not graded here. Sequences can lack the tags named with a protein.
Biological target: T1, jasmonate ZIM-domain protein 3 (JAZ3), prey fusion (Arabidopsis thaliana) (UniProt Q9LVI4)
T1 sequence: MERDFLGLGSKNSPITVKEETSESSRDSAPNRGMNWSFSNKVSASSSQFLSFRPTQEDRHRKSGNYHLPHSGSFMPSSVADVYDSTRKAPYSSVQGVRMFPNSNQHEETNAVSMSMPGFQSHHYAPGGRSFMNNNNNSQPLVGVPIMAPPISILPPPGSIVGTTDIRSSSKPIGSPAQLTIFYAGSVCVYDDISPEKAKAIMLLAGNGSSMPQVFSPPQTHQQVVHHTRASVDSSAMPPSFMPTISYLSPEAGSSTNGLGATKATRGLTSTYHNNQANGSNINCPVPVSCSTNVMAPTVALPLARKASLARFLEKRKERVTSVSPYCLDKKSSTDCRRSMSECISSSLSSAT
Assay: yeast three-hybrid; Y3H in yeast strain PJ69-4a; NINJA:NLS-FLAG-HIS co-expressed from pMG426 under the GPD promoter as bridging protein with the pGBKT7 and pGADT7 fusions; growth on selective SD-His-Leu-Trp-Ura medium

The chains behind the UniProt entries cited, without tags or fusion partners. Where a name states a change or a piece, a line headed by the entry shows the natural chain unless it says otherwise.
UniProt Q9SV55: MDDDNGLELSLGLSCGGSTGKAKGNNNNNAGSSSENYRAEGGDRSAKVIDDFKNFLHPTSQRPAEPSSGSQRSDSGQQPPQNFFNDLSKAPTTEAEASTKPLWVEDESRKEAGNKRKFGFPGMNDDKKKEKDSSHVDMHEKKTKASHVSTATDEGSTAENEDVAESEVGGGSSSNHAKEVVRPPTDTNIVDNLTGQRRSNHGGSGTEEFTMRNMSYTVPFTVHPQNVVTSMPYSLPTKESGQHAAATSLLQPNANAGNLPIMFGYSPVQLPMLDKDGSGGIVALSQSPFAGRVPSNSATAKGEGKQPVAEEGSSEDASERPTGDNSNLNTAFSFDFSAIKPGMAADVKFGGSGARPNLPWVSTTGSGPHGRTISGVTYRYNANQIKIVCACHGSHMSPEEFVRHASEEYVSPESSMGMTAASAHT

binding: binds
Substance: NINJA:NLS-FLAG-HIS expressed from pMG426 (bridging protein of the Y3H) (from UniProt Q9SV55 1-425)

From PMC3519679
